# Experimental data: PubChem BioAssay AID1508597 (Cure First, 2020)
# Test: 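Genes whose silencing sensitises or protects ovarian cancer cells against rucaparib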 (primary screen)
# Cell system: human ovarian carcinoma lines grown from tumours: OCI-P5x (papillary serous) and OCI-C5x (clear cell)
# Knock-down reagent: siRNA pool against human genes, 1.25 pmol siRNA per well
# Time to read-out: 72 h or 96 h, depending on the cell culture
# Challenge: rucaparib 20 µM (about IC30) or vehicle, present until read-out
# Rucaparib or vehicle: Vehicle
# Cell line: OCI-P5x (serous)
# Detection: 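Luminescent ATP-based viability assay read 72 or 96 h after transfection, depending on culture, given as normalised percent viability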
# Reading the numbers: viability, normalised: higher = more viable cells remaining
# Active means: 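Active when normalised viability falls below 80 percent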
# Calls: active = viability under 80%; inactive = viability 80% or more
# This is an unselected part of the about 2,100 reagents, in one setting of the screen. 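Calls flag viability under 80% in either arm, not effects specific to rucaparib; the reference for percent is not stated.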 A number with no mark means an inactive call. A reagent listed more than once was tested more than once; the source does not tell the runs apart. The record does not give: the 100% reference.
target,technical replicate,"viability, normalised (%)"
PCDHB11 (protocadherin beta 11),1,59.2 (active)
PCDHB11 (protocadherin beta 11),2,58.5 (active)
PCDHB11 (protocadherin beta 11),3,83.5
RUVBL2 (RuvB like AAA ATPase 2),1,90.7
RUVBL2 (RuvB like AAA ATPase 2),1,63.1 (active)
RUVBL2 (RuvB like AAA ATPase 2),2,89.9
RUVBL2 (RuvB like AAA ATPase 2),2,80.5
RUVBL2 (RuvB like AAA ATPase 2),3,99.5
RUVBL2 (RuvB like AAA ATPase 2),3,75.1 (active)
EIF4A2 (eukaryotic translation initiation factor 4A2),1,52.1 (active)
EIF4A2 (eukaryotic translation initiation factor 4A2),2,63.3 (active)
EIF4A2 (eukaryotic translation initiation factor 4A2),3,58.7 (active)
BRWD3 (bromodomain and WD repeat domain containing 3),1,70.1 (active)
BRWD3 (bromodomain and WD repeat domain containing 3),2,71.7 (active)
BRWD3 (bromodomain and WD repeat domain containing 3),3,73.2 (active)
ETNK1 (ethanolamine kinase 1),1,91.5
ETNK1 (ethanolamine kinase 1),2,78.7 (active)
ETNK1 (ethanolamine kinase 1),3,80
ZNF451 (zinc finger protein 451),1,73.4 (active)
ZNF451 (zinc finger protein 451),2,59.3 (active)
ZNF451 (zinc finger protein 451),3,128
CHMP4C (charged multivesicular body protein 4C),1,59.1 (active)
CHMP4C (charged multivesicular body protein 4C),2,69.6 (active)
CHMP4C (charged multivesicular body protein 4C),3,64.2 (active)
PRKCI (protein kinase C iota),1,62.9 (active)
PRKCI (protein kinase C iota),1,54.4 (active)
PRKCI (protein kinase C iota),2,71.2 (active)
PRKCI (protein kinase C iota),2,55.1 (active)
PRKCI (protein kinase C iota),3,50.6 (active)
PRKCI (protein kinase C iota),3,55.2 (active)

Reformatted: 9 of the entries above.
target	technical replicate	viability, normalised (%)
ZNF451 (zinc finger protein 451)	2	59.3 (active)
ZNF451 (zinc finger protein 451)	3	128
CHMP4C (charged multivesicular body protein 4C)	1	59.1 (active)
CHMP4C (charged multivesicular body protein 4C)	2	69.6 (active)
CHMP4C (charged multivesicular body protein 4C)	3	64.2 (active)
PRKCI (protein kinase C iota)	1	62.9 (active)
PRKCI (protein kinase C iota)	1	54.4 (active)
PRKCI (protein kinase C iota)	2	71.2 (active)
PRKCI (protein kinase C iota)	2	55.1 (active)

Continued.
target,technical replicate,"viability, normalised (%)"
NFATC1 (nuclear factor of activated T cells 1),1,42.2 (active)
NFATC1 (nuclear factor of activated T cells 1),2,57.2 (active)
NFATC1 (nuclear factor of activated T cells 1),3,63.5 (active)
PRKCH (protein kinase C eta),1,91.3
PRKCH (protein kinase C eta),2,90.5
PRKCH (protein kinase C eta),3,100
SCAF11 (SR-related CTD associated factor 11),1,58.5 (active)
SCAF11 (SR-related CTD associated factor 11),2,60.5 (active)
SCAF11 (SR-related CTD associated factor 11),3,72.6 (active)
KDM5C (lysine demethylase 5C),1,41.7 (active)
KDM5C (lysine demethylase 5C),2,41.3 (active)
KDM5C (lysine demethylase 5C),3,78.2 (active)
NUP98 (nucleoporin 98 and 96 precursor),1,29.4 (active)
NUP98 (nucleoporin 98 and 96 precursor),1,61.4 (active)
NUP98 (nucleoporin 98 and 96 precursor),2,57.8 (active)
NUP98 (nucleoporin 98 and 96 precursor),2,40.7 (active)
NUP98 (nucleoporin 98 and 96 precursor),3,51.6 (active)
NUP98 (nucleoporin 98 and 96 precursor),3,60.8 (active)
FECH (ferrochelatase),1,75.5 (active)
FECH (ferrochelatase),2,81.9
FECH (ferrochelatase),3,83.7
PHF8 (PHD finger protein 8),1,70.3 (active)
PHF8 (PHD finger protein 8),2,70.6 (active)
PHF8 (PHD finger protein 8),3,90.3
G2E3 (G2/M-phase specific E3 ubiquitin protein ligase),1,71.9 (active)
G2E3 (G2/M-phase specific E3 ubiquitin protein ligase),2,61.1 (active)
G2E3 (G2/M-phase specific E3 ubiquitin protein ligase),3,84.2
CHD6 (chromodomain helicase DNA binding protein 6),1,63.7 (active)
CHD6 (chromodomain helicase DNA binding protein 6),2,89.5
CHD6 (chromodomain helicase DNA binding protein 6),3,82
PMAIP1 (phorbol-12-myristate-13-acetate-induced protein 1),1,54.8 (active)
PMAIP1 (phorbol-12-myristate-13-acetate-induced protein 1),2,55.2 (active)
PMAIP1 (phorbol-12-myristate-13-acetate-induced protein 1),3,59.8 (active)
MAP2K4 (mitogen-activated protein kinase kinase 4),1,81.9
MAP2K4 (mitogen-activated protein kinase kinase 4),2,93.2
MAP2K4 (mitogen-activated protein kinase kinase 4),3,95.1
PIK3CA,1,94.2
PIK3CA,1,77.5 (active)
PIK3CA,2,85.6
PIK3CA,2,81.5
PIK3CA,3,86.5
PIK3CA,3,85.8
DTYMK (deoxythymidylate kinase),1,72.8 (active)
DTYMK (deoxythymidylate kinase),2,74.8 (active)
DTYMK (deoxythymidylate kinase),3,93.5
